Experimental data taken from US12295997B2, “Prostate neoantigens and their uses” (Janssen Biotech, Inc., priority 2020, dated 2025).
Entries after “also recorded” stand apart in the source; their conditions may differ. For some of these results: The expression values are mRNA levels of the gene; the protein chain is shown to identify it.

B1: VPFRELKNVSVLEGLRQGRLGGPCSCHCPRPSQARLTPVDVAGPFLCLGDPGLFPPVKSSI (peptide, listed as Homo sapiens)
chain: VPFRELKNVSVLEGLRQGRLGGPCSCHCPRPSQARLTPVDVAGPFLCLGDPGLFPPVKSSI
notes: CPNE7 alternative splicing
B2: VPFRELKNQRTAQGAPGIHHAASPVAANLCDPARHAQHTRIPCGAGQVRAGRGPEAGGGVLQPQRPAPEKPGCPCRRGQPRLHTVKMWRA (peptide, listed as Homo sapiens)
chain: VPFRELKNQRTAQGAPGIHHAASPVAANLCDPARHAQHTRIPCGAGQVRAGRGPEAGGGVLQPQRPAPEKPGCPCRRGQPRLHTVKMWRA
notes: CPNE7 alternative splicing
B3: CHLFLQPQVGTPPPHTASARAPSGPPHPHESCPAGRRPARAAQTCARRQHGLPGCEEAGTARVPSLHLHLHQAALGAGRGRGWGEACAQVPPSRG (peptide, listed as Homo sapiens)
chain: CHLFLQPQVGTPPPHTASARAPSGPPHPHESCPAGRRPARAAQTCARRQHGLPGCEEAGTARVPSLHLHLHQAALGAGRGRGWGEACAQVPPSRG
notes: RECQL4 alternative splicing
B4: HYKLIQQPISLFSITDRLHKTFSQLPSVHLCSITFQWGHPPIFCSTNDICVTANFCISVTFLKPCFLLHEASASQ (peptide, listed as Homo sapiens)
chain: HYKLIQQPISLFSITDRLHKTFSQLPSVHLCSITFQWGHPPIFCSTNDICVTANFCISVTFLKPCFLLHEASASQ
B5: YAYKDFLWCFPFSLVFLQEIQICCHVSCLCCICCSTRICLGCLLELFLSRALRALHVLWNGFQLHCQ (peptide, listed as Homo sapiens)
chain: YAYKDFLWCFPFSLVFLQEIQICCHVSCLCCICCSTRICLGCLLELFLSRALRALHVLWNGFQLHCQ
B6: WGMELAASRRFSWDHHSAGGPPRVPSVRSGAAQVQPKDPLPLRTLAGCLARTAHLRPGAESLPQPQLHCT (peptide, listed as Homo sapiens)
chain: WGMELAASRRFSWDHHSAGGPPRVPSVRSGAAQVQPKDPLPLRTLAGCLARTAHLRPGAESLPQPQLHCT
notes: INCA1->CAMTA2 gene fusion
B7: LWFQSSELSPTGAPWPSRRPTWRGTTVSPRTATSSARTCCGTKWPSSQEAALGLGSGLLRFSCGTAAIR (peptide, listed as Homo sapiens)
chain: LWFQSSELSPTGAPWPSRRPTWRGTTVSPRTATSSARTCCGTKWPSSQEAALGLGSGLLRFSCGTAAIR
notes: NME4->DECR2 gene fusion

Assays:
Design in all cases: species or system human
[1] = system: panel of normal tissues, PBMCs obtained from healthy subjects, cell lines; assay: Expression profiling of prostate neoantigens in normal tissues, PBMCs and cell lines (Fluidigm Biomark HD)
[2] = system: FFPE tissue samples from prostate cancer; assay: Expression profiling of prostate neoantigens in FFPE prostate cancer samples (Fluidigm Biomark HD); details: for qPCR Relative Average Ct: FFPE prostate cancer tissue samples; for qPCR % Positive FFPE: about 90 FFPE prostate cancer tissue samples
[3] = system: Frozen prostate cancer tissues; assay: Prevalence of neoantigens in frozen prostate cancer tissues (n = 11); details: Table 22

Molecule | qPCR Normal Tissue Expression [1] | qPCR Relative Average Ct [2] | qPCR % Positive FFPE [2] [%] | Frozen prostate cancer tissues* (n = 11) [3]
NSKMALNSLNSIDDAQLTRIAPPRSHCCFWEVNAP (listed as Homo sapiens) [Neoantigen P35] | None | 13 | 5 | –
CGASACDVSLIAMDSA (listed as Homo sapiens) [FUS1, SLC45A3->ELK4 gene fusion] | – | 9 | 72 | –
QWQHYHRSGEAAGTPLWRPTRN (listed as Homo sapiens) [AS19, NWD1 alternative splicing] | – | 6.3 | 95.6 | –
DGHSYTSKVNCLLLQDGFHGCVSITGAAGRRNLSIFLFLMLCKLEFHAC (listed as Homo sapiens) [AS55, SPOCK1 alternative splicing] | – | 8.2 | 83.3 | 18.2
VLRFLDLKVRYLHS (listed as Homo sapiens) [AS15, LRRC45 alternative splicing] | Ovary,; also recorded: Mammary | 11.4 | 68.9 | 36.4
LVLGVLSGHSGSRL (listed as Homo sapiens) [AS8, CACNA1D alternative splicing] | – | 12.5 | 13.3 | 0.0
TGGKSTCSAPGPQSLPSTPFSTYPQWVILITEL (listed as Homo sapiens) [AS57, KLK3 alternative splicing] | – | 7.9 | 83.3 | 36.4
GVPGDSTRRAVRRMNTF (listed as Homo sapiens) [Neoantigen P16] | Prostate | 9 | 76 | –
TMPAILKLQKNCLLSL (listed as Homo sapiens) [MS8] | None | – | – | 18.2
EAFQRAAGEGGPGRGGARRGARVLQSPFCRAGAGEWLGHQSLR (listed as Homo sapiens) [AS41, RHPN1 alternative splicing] | – | 11.6 | 45.6 | 0.0
KMHFSLKEHPPPPCPP (listed as Homo sapiens) [FUS19, GTF2F1->PSPN gene fusion] | – | 13 | 4 | –
FUSS (NSKMALNSEALSVVSE; listed as Homo sapiens) | – | 7 | 14 | –
YEAGMTLGGKILFFLFLLLPLSPFSLIF (listed as Homo sapiens) [Neoantigen P87] | Ovary, Prostate | 8.3 | 85.6 | 0.0
DYWAQKEKGSSSFLRPSC (listed as Homo sapiens) [AS7, ACSM1 alternative splicing] | – | 11.0 | 57.8 | 27.3
TEYNQKLQVNQFSESK (listed as Homo sapiens) [FUS2, ARHGEF38->ARHGEF38-IT1 gene fusion] | Mammary | 11 | 55 | –
GNTTLQQLGEASQAPSGSLIPLRLPLLWEVRG (listed as Homo sapiens) [AS16, LRRC45 alternative splicing] | – | 10.8 | 47.8 | 45.5
CEERGAAGSLISCE (listed as Homo sapiens) [FUS6, TMPRSS2->ERG gene fusion] | – | 11 | 19 | –
WKFEMSYTVGGPPPHVHARPRHWKTDR (listed as Homo sapiens) [AS18, NWD1 alternative splicing] | – | 6.3 | 95.6 | –

Molecule | qPCR Normal Tissue Expression [1] | qPCR Relative Average Ct [2] | qPCR % Positive FFPE [2] [%] | Frozen prostate cancer tissues* (n = 11) [3]
GMECTLGQVGAPSPRREEDGWRGGHSRFKADVPAPQGPCWGGQPGSAPSSAPPEQSLLD (listed as Homo sapiens) [AS51, CPNE7 alternative splicing] | – | 10.5 | 47.8 | 9.1
SLYHREKQLIAMDSAI (listed as Homo sapiens) [Neoantigen P22] | Prostate | 9 | 70 | –
KRSFAVTERII (listed as Homo sapiens) [AS13, GRIN3A alternative splicing] | – | 11.1 | 21.1 | 27.3
KIQNKNCPD (listed as Homo sapiens) [AS23, ZNF614 alternative splicing] | Mammary | 13.0 | 22.0 | 45.5
FKKFDGPCGERGGGRTARALWARGDSVLTPALDPQTPVRAPSLTRAAAAV (listed as Homo sapiens) [AS47, AGRN alternative splicing] | – | 12.3 | 16.7 | 0.0
TEISCCTLSSEENEYLPRPEWQLQ (listed as Homo sapiens) [FUS3, MSMB->NCOA4 gene fusion] | – | 11 | 43 | –
HVVGYGHLDTSGSSSSSSWP (listed as Homo sapiens) [FUS15, D2HGDH->GAL3ST2 gene fusion] | – | 13 | 8 | –
DYWAQKEKISIPRTHLC (listed as Homo sapiens) [AS6, ACSM1 alternative splicing] | – | 10.0 | 33.3 | 27.3
YEAGMTLGEKFRVGNCKHLKMTRP (listed as Homo sapiens) [Neoantigen P82] | – | 11 | 37.0 | –
RTALTHNQDFSIYRLCCKRGSLCHASQARSPAFPKPVRPLPAPITRITPQLGGQSDSSQPLLTTGRPQGWQDQALRHTQQASPASCATITIPIHSAALGDHSGDPGPAWDTCPPLPLTTLIPRAPPPYGDSTARSWPSRCGPLG [MS3] | – | – | – | 9.1
VAMMVPDRQVHYDFGL (listed as Homo sapiens) [AS3, DNAH8 alternative splicing] | – | 10.8 | 26.7 | 27.3
B1 | Mammary | 11.2 | 52.2 | 0.0
B2 | – | 12.1 | 25.6 | 9.1
B3 | – | – | 0.0 | 0.0
B4 | None | – | – | 18.2
B5 | None | – | – | 9.1
B6 | – | 14 | 11 | –
B7 | – | – | 0 | –
